Reference: PMC6465247
Results are given in words; binding and its absence hold for the method and conditions named. Tags and fused reporters may be left off the sequences shown.

Sequences of proteins named here, by UniProt entry; tags and fusion partners are left off.
UniProt Q6Q1P4: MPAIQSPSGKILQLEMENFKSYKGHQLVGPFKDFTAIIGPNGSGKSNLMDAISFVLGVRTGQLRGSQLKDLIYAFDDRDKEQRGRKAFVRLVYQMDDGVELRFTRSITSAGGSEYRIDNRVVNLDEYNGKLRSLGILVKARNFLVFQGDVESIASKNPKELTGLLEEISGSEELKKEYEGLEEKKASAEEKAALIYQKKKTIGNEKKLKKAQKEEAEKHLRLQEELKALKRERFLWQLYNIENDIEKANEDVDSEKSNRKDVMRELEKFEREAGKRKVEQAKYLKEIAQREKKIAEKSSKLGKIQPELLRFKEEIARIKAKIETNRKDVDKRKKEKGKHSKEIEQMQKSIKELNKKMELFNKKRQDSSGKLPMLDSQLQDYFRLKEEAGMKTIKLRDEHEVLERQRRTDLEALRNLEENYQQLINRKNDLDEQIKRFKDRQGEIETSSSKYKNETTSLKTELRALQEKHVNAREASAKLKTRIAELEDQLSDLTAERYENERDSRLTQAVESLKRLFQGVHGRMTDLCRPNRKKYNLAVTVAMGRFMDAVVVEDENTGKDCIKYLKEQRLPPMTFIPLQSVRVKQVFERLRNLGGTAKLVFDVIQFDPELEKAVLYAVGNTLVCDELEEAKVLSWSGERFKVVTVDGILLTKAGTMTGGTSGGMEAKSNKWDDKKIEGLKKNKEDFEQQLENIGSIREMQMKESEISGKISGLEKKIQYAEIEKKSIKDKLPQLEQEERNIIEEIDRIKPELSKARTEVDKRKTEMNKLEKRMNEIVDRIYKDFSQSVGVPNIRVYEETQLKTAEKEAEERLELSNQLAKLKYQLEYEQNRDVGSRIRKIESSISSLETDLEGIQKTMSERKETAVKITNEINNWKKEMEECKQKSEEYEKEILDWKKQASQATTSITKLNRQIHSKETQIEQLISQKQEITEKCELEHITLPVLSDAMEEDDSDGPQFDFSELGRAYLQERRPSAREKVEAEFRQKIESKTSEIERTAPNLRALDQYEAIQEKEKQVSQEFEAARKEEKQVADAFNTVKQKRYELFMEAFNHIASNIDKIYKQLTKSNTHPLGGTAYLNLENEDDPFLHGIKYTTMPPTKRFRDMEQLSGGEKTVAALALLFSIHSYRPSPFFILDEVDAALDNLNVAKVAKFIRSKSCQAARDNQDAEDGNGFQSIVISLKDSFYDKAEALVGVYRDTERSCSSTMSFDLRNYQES

Tests used:
Experiment in all cases: two-hybrid; Matchmaker Gold system (Clontech), pGADT7-GW and pGBKT7-GW fusions co-transformed into yeast AH109; growth on SD/-Leu -Trp -His
[1] = target: T1, SCC3, yeast two-hybrid fusion (Arabidopsis thaliana) (UniProt O82265)
T1 sequence: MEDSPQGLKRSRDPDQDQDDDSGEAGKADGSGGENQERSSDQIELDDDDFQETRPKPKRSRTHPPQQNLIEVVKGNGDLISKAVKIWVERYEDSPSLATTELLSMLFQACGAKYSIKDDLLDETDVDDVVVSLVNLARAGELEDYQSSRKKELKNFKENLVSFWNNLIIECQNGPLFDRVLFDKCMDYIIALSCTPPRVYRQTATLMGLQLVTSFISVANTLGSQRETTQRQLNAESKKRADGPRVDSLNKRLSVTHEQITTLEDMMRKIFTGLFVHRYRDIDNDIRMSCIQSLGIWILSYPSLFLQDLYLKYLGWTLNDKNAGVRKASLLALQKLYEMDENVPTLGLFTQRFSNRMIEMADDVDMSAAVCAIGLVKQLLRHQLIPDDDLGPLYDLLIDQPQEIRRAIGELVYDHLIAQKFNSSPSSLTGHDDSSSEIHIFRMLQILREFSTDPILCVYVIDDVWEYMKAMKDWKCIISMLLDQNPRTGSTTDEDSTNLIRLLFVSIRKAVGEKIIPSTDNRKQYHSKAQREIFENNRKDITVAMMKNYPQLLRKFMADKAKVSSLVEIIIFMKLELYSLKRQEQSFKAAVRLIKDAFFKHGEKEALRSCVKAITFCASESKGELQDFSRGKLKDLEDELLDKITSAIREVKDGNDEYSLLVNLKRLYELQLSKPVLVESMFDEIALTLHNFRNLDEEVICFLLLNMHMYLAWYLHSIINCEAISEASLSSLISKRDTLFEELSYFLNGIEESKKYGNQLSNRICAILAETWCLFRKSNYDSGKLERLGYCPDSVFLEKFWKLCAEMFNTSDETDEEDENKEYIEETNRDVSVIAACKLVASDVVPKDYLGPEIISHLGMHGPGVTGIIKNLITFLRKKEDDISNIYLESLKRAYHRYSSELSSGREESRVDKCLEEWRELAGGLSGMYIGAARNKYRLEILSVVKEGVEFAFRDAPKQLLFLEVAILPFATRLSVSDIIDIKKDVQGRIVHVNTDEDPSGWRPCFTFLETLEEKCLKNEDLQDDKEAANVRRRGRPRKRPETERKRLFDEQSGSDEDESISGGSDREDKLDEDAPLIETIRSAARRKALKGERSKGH

[2] = target: SMC1, yeast two-hybrid fusion (Arabidopsis thaliana) (UniProt Q6Q1P4)
[3] = target: T2, WINGS APART-LIKE 1 (WAPL1), yeast two-hybrid fusion (Arabidopsis thaliana) (UniProt F4I7C7)
T2 sequence: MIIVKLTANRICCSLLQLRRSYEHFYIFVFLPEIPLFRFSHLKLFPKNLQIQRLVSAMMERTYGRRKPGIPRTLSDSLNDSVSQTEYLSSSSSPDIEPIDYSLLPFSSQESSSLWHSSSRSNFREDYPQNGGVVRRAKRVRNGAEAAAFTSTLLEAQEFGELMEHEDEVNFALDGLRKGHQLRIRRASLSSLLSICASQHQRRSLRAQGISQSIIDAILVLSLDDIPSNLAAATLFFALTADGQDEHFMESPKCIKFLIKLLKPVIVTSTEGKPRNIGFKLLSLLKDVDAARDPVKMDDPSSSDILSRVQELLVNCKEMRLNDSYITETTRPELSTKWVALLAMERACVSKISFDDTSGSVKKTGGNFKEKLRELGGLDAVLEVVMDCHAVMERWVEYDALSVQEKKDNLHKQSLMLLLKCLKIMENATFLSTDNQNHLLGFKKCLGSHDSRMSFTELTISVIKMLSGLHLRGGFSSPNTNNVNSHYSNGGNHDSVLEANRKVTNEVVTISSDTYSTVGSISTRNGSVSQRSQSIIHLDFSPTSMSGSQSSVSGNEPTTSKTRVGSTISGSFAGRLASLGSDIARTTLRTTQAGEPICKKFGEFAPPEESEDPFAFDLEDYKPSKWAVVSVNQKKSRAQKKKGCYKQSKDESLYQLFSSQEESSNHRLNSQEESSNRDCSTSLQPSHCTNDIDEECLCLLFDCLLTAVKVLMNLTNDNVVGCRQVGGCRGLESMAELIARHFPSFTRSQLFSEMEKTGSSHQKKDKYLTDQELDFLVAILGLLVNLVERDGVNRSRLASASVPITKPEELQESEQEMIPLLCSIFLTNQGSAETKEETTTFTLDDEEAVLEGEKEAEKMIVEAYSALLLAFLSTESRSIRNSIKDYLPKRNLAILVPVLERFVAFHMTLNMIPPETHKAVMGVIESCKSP

Measured: binding

B1: SWITCH 1/DYAD (SWI1), yeast two-hybrid fusion (protein, UniProt Q9FGN8 1-639)
chain: MSSTMFVKRNPIRETTAGKISSPSSPTLNVAVAHIRAGSYYEIDASILPQRSPENLKSIRVVMVSKITASDVSLRYPSMFSLRSHFDYSRMNRNKPMKKRSGGGLLPVFDESHVMASELAGDLLYRRIAPHELSMNRNSWGFWVSSSSRRNKFPRREVVSQPAYNTRLCRAASPEGKCSSELKSGGMIKWGRRLRVQYQSRHIDTRKNKEGEESSRVKDEVYKEEEMEKEEDDDDGNEIGGTKQEAKEITNGNRKRKLIESSTERLAQKAKVYDQKKETQIVVYKRKSERKFIDRWSVERYKLAERNMLKVMKEKNAVFGNSILRPELRSEARKLIGDTGLLDHLLKHMAGKVAPGGQDRFMRKHNADGAMEYWLESSDLIHIRKEAGVKDPYWTPPPGWKLGDNPSQDPVCAGEIRDIREELASLKRELKKLASKKEEEELVIMTTPNSCVTSQNDNLMTPAKEIYADLLKKKYKIEDQLVIIGETLRKMEEDMGWLKKTVDENYPKKPDSTETPLLLEDSPPIQTLEGEVKVVNKGNQITESPQNREKGRKHDQQERSPLSLISNTGFRICRPVGMFAWPQLPALAAATDTNASSPSHRQAYPSPFPVKPLAAKRPLGLTFPFTIIPEEAPKNLFNV
no binding: all assays above
